Data from PMC8062632, “Structural studies of phosphorylation-dependent interactions between the V2R receptor and arrestin-2” (Nature Communications, 2021).

system: arrestin2-Phospho-peptide-Fab30 complex; settings: pH 7.5

First: CC(C)C[C@H](NC(=O)[C@H](COP(=O)(O)O)NC(=O)[C@@H]1CCCN1C(=O)[C@@H]1CCCN1C(=O)[C@@H](NC(=O)[C@H](CCCNC(=N)N)NC(=O)CNC(=O)[C@H](CCCNC(=N)N)NC(=O)[C@H](C)N)[C@@H](C)O)C(=O)NCC(=O)N1CCC[C@H]1C(=O)N[C@@H](CCC(N)=O)C(=O)N[C@@H](CC(=O)O)C(=O)N[C@@H](CCC(=O)O)C(=O)N[C@@H](COP(=O)(O)O)C(=O)N[C@@H](CS)C(=O)N[C@H](C(=O)N[C@H](C(=O)N[C@@H](C)C(=O)N[C@@H](COP(=O)(O)O)C(=O)N[C@@H](COP(=O)(O)O)C(=O)N[C@@H](COP(=O)(O)O)C(=O)N[C@@H](CC(C)C)C(=O)N[C@@H](C)C(=O)N[C@@H](CCCCN)C(=O)N[C@@H](CC(=O)O)C(=O)N[C@H](C(=O)N[C@@H](CO)C(=O)N[C@@H](CO)C(=O)O)[C@@H](C)O)[C@@H](C)OP(=O)(O)O)[C@@H](C)OP(=O)(O)O [V2Rpp-1]
Second: CC(C)C[C@H](NC(=O)[C@H](COP(=O)(O)O)NC(=O)[C@@H]1CCCN1C(=O)[C@@H]1CCCN1C(=O)[C@@H](NC(=O)[C@H](CCCNC(=N)N)NC(=O)CNC(=O)[C@H](CCCNC(=N)N)NC(=O)[C@H](C)N)[C@@H](C)OP(=O)(O)O)C(=O)NCC(=O)N1CCC[C@H]1C(=O)N[C@@H](CCC(N)=O)C(=O)N[C@@H](CC(=O)O)C(=O)N[C@@H](CCC(=O)O)C(=O)N[C@@H](COP(=O)(O)O)C(=O)N[C@@H](CS)C(=O)N[C@H](C(=O)N[C@H](C(=O)N[C@@H](C)C(=O)N[C@@H](COP(=O)(O)O)C(=O)N[C@@H](COP(=O)(O)O)C(=O)N[C@@H](COP(=O)(O)O)C(=O)N[C@@H](CC(C)C)C(=O)N[C@@H](C)C(=O)N[C@@H](CCCCN)C(=O)N[C@@H](CC(=O)O)C(=O)N[C@H](C(=O)N[C@@H](CO)C(=O)N[C@@H](CO)C(=O)O)[C@@H](C)O)[C@@H](C)O)[C@@H](C)OP(=O)(O)O [V2Rpp-4]
The “ΔTm (melting temperature shift caused by Fab 30 incubation)” value of the first is higher: 11.81 °C for the first, 4.21 °C for the second.

Going from `CC(C)C[C@H](NC(=O)[C@H](COP(=O)(O)O)NC(=O)[C@@H]1CCCN1C(=O)[C@@H]1CCCN1C(=O)[C@@H](NC(=O)[C@H](CCCNC(=N)N)NC(=O)CNC(=O)[C@H](CCCNC(=N)N)NC(=O)[C@H](C)N)[C@@H](C)OP(=O)(O)O)C(=O)NCC(=O)N1CCC[C@H]1C(=O)N[C@@H](CCC(N)=O)C(=O)N[C@@H](CC(=O)O)C(=O)N[C@@H](CCC(=O)O)C(=O)N[C@@H](CO)C(=O)N[C@@H](CS)C(=O)N[C@H](C(=O)N[C@H](C(=O)N[C@@H](C)C(=O)N[C@@H](COP(=O)(O)O)C(=O)N[C@@H](COP(=O)(O)O)C(=O)N[C@@H](COP(=O)(O)O)C(=O)N[C@@H](CC(C)C)C(=O)N[C@@H](C)C(=O)N[C@@H](CCCCN)C(=O)N[C@@H](CC(=O)O)C(=O)N[C@H](C(=O)N[C@@H](CO)C(=O)N[C@@H](CO)C(=O)O)[C@@H](C)O)[C@@H](C)OP(=O)(O)O)[C@@H](C)OP(=O)(O)O` [V2Rpp-3] to `CC(C)C[C@H](NC(=O)[C@H](COP(=O)(O)O)NC(=O)[C@@H]1CCCN1C(=O)[C@@H]1CCCN1C(=O)[C@@H](NC(=O)[C@H](CCCNC(=N)N)NC(=O)CNC(=O)[C@H](CCCNC(=N)N)NC(=O)[C@H](C)N)[C@@H](C)OP(=O)(O)O)C(=O)NCC(=O)N1CCC[C@H]1C(=O)N[C@@H](CCC(N)=O)C(=O)N[C@@H](CC(=O)O)C(=O)N[C@@H](CCC(=O)O)C(=O)N[C@@H](COP(=O)(O)O)C(=O)N[C@@H](CS)C(=O)N[C@H](C(=O)N[C@H](C(=O)N[C@@H](C)C(=O)N[C@@H](COP(=O)(O)O)C(=O)N[C@@H](CO)C(=O)N[C@@H](CO)C(=O)N[C@@H](CC(C)C)C(=O)N[C@@H](C)C(=O)N[C@@H](CCCCN)C(=O)N[C@@H](CC(=O)O)C(=O)N[C@H](C(=O)N[C@@H](CO)C(=O)N[C@@H](CO)C(=O)O)[C@@H](C)O)[C@@H](C)OP(=O)(O)O)[C@@H](C)OP(=O)(O)O` [V2Rpp-6-7], the “ΔTm (melting temperature shift caused by Fab 30 incubation)” value falls from 12.20 °C to 3.19 °C.
